Experimental data reported in patent EP4806909A1, “GLP-1 COMPOUND, AND PREPARATION METHOD THEREFOR AND USE THEREOF” (Shenzhen Salubris Pharmaceuticals Co., Ltd., priority 2023, dated 2025).
At least one peptide structure holds a part that was inferred or is arguable (an end, a ring closure or a residue). Some entries repeat one wording, which the source may state once for all of them. Some results were stated once for a whole list of compounds, not compound by compound.

Assay: Determination of conversion half-life
Type: physicochemical
Conditions: PBS buffer pH = 7.4, 200 µM, incubated at 37°C, within 2 weeks

SMILES | in vitro conversion half-life
CC[C@H](C)[C@H](NC(=O)[C@H](Cc1ccccc1)NC(=O)[C@H](CCC(=O)O)NC(=O)[C@H](CCCCNC(=O)COCCOCCNC(=O)COCCOCCNC(=O)CC[C@H](NC(=O)CCCCCCCCCCCCCCCCC(=O)O)C(=O)O)NC(=O)[C@H](C)NC(=O)[C@H](C)NC(=O)[C@H](CCC(N)=O)NC(=O)CNC(=O)[C@H](CCC(=O)O)NC(=O)[C@H](CC(C)C)NC(=O)[C@H](Cc1ccc(O)cc1)NC(=O)[C@H](CO)NC(=O)[C@H](CO)NC(=O)[C@@H](NC(=O)[C@H](CC(=O)O)NC(=O)[C@H](CO)NC(=O)[C@@H](NC(=O)[C@H](Cc1ccccc1)NC(=O)[C@@H](NC(=O)CNC(=O)[C@H](CCC(=O)O)NC(=O)C(C)(C)NC(=O)[C@H](Cc1c[nH]cn1)NC(=O)CN(CCOCCOCCNC(=O)C[C@H](NC(=O)CCCCCCCCCCCCCCC(=O)O)C(=O)O)C(=O)CN)[C@@H](C)O)[C@@H](C)O)C(C)C)C(=O)N[C@@H](C)C(=O)N[C@@H](Cc1c[nH]c2ccccc12)C(=O)N[C@@H](CC(C)C)C(=O)N[C@H](C(=O)N[C@@H](CCCNC(=N)N)C(=O)NCC(=O)N[C@@H](CCCNC(=N)N)C(=O)NCC(=O)O)C(C)C [Example 4] | not less than 50 h
CC[C@H](C)[C@H](NC(=O)[C@H](Cc1ccccc1)NC(=O)[C@H](CCC(=O)O)NC(=O)[C@H](CCCCNC(=O)COCCOCCNC(=O)COCCOCCNC(=O)CC[C@H](NC(=O)CCCCCCCCCCCCCCCCC(=O)O)C(=O)O)NC(=O)[C@H](C)NC(=O)[C@H](C)NC(=O)[C@H](CCC(N)=O)NC(=O)CNC(=O)[C@H](CCC(=O)O)NC(=O)[C@H](CC(C)C)NC(=O)[C@H](Cc1ccc(O)cc1)NC(=O)[C@H](CO)NC(=O)[C@H](CO)NC(=O)[C@@H](NC(=O)[C@H](CC(=O)O)NC(=O)[C@H](CO)NC(=O)[C@@H](NC(=O)[C@H](Cc1ccccc1)NC(=O)[C@@H](NC(=O)CNC(=O)[C@H](CCC(=O)O)NC(=O)C(C)(C)NC(=O)[C@H](Cc1c[nH]cn1)NC(=O)CN(CCOCCOCCNC(=O)CC[C@H](NC(=O)CCCCCCCCCCCCCCC(=O)O)C(=O)O)C(=O)CN)[C@@H](C)O)[C@@H](C)O)C(C)C)C(=O)N[C@@H](C)C(=O)N[C@@H](Cc1c[nH]c2ccccc12)C(=O)N[C@@H](CC(C)C)C(=O)N[C@H](C(=O)N[C@@H](CCCNC(=N)N)C(=O)NCC(=O)N[C@@H](CCCNC(=N)N)C(=O)NCC(=O)O)C(C)C [Example 3] | not less than 50 h
CC[C@H](C)[C@H](NC(=O)[C@H](Cc1ccccc1)NC(=O)[C@H](CCC(=O)O)NC(=O)[C@H](CCCCNC(=O)COCCOCCNC(=O)COCCOCCNC(=O)CC[C@H](NC(=O)CCCCCCCCCCCCCCCCC(=O)O)C(=O)O)NC(=O)[C@H](C)NC(=O)[C@H](C)NC(=O)[C@H](CCC(N)=O)NC(=O)CNC(=O)[C@H](CCC(=O)O)NC(=O)[C@H](CC(C)C)NC(=O)[C@H](Cc1ccc(O)cc1)NC(=O)[C@H](CO)NC(=O)[C@H](CO)NC(=O)[C@@H](NC(=O)[C@H](CC(=O)O)NC(=O)[C@H](CO)NC(=O)[C@@H](NC(=O)[C@H](Cc1ccccc1)NC(=O)[C@@H](NC(=O)CNC(=O)[C@H](CCC(=O)O)NC(=O)C(C)(C)NC(=O)[C@H](Cc1c[nH]cn1)NC(=O)CN(CCNC(=O)C[C@H](NC(=O)CCCCCCCCCCCCCCC(=O)O)C(=O)O)C(=O)CN)[C@@H](C)O)[C@@H](C)O)C(C)C)C(=O)N[C@@H](C)C(=O)N[C@@H](Cc1c[nH]c2ccccc12)C(=O)N[C@@H](CC(C)C)C(=O)N[C@H](C(=O)N[C@@H](CCCNC(=N)N)C(=O)NCC(=O)N[C@@H](CCCNC(=N)N)C(=O)NCC(=O)O)C(C)C [Example 2] | not less than 50 h
CC[C@H](C)[C@H](NC(=O)[C@H](Cc1ccccc1)NC(=O)[C@H](CCC(=O)O)NC(=O)[C@H](CCCCNC(=O)COCCOCCNC(=O)COCCOCCNC(=O)CC[C@H](NC(=O)CCCCCCCCCCCCCCCCC(=O)O)C(=O)O)NC(=O)[C@H](C)NC(=O)[C@H](C)NC(=O)[C@H](CCC(N)=O)NC(=O)CNC(=O)[C@H](CCC(=O)O)NC(=O)[C@H](CC(C)C)NC(=O)[C@H](Cc1ccc(O)cc1)NC(=O)[C@H](CO)NC(=O)[C@H](CO)NC(=O)[C@@H](NC(=O)[C@H](CC(=O)O)NC(=O)[C@H](CO)NC(=O)[C@@H](NC(=O)[C@H](Cc1ccccc1)NC(=O)[C@@H](NC(=O)CNC(=O)[C@H](CCC(=O)O)NC(=O)C(C)(C)NC(=O)[C@H](Cc1c[nH]cn1)NC(=O)CN(CCNC(=O)CC[C@H](NC(=O)CCCCCCCCCCCCCCC(=O)O)C(=O)O)C(=O)[C@@H]1CCCN1)[C@@H](C)O)[C@@H](C)O)C(C)C)C(=O)N[C@@H](C)C(=O)N[C@@H](Cc1c[nH]c2ccccc12)C(=O)N[C@@H](CC(C)C)C(=O)N[C@H](C(=O)N[C@@H](CCCNC(=N)N)C(=O)NCC(=O)N[C@@H](CCCNC(=N)N)C(=O)NCC(=O)O)C(C)C [Example 17] | not less than 50 h
